Measurements as given in the supplement of paper PMC10849652.
Some of the results follow.

Amino acid sequences for entries named in this document (tags omitted). A change or cut given only in a name is not applied to a line headed by its entry.
UniProt P46108: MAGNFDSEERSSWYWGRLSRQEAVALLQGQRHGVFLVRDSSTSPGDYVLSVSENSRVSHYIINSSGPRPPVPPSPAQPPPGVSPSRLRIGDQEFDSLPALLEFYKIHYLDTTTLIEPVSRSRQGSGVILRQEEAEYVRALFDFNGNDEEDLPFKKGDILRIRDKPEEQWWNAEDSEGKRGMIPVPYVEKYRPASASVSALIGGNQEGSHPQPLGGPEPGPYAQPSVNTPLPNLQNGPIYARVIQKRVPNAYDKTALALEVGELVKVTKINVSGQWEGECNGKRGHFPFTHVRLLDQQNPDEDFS
UniProt P49711: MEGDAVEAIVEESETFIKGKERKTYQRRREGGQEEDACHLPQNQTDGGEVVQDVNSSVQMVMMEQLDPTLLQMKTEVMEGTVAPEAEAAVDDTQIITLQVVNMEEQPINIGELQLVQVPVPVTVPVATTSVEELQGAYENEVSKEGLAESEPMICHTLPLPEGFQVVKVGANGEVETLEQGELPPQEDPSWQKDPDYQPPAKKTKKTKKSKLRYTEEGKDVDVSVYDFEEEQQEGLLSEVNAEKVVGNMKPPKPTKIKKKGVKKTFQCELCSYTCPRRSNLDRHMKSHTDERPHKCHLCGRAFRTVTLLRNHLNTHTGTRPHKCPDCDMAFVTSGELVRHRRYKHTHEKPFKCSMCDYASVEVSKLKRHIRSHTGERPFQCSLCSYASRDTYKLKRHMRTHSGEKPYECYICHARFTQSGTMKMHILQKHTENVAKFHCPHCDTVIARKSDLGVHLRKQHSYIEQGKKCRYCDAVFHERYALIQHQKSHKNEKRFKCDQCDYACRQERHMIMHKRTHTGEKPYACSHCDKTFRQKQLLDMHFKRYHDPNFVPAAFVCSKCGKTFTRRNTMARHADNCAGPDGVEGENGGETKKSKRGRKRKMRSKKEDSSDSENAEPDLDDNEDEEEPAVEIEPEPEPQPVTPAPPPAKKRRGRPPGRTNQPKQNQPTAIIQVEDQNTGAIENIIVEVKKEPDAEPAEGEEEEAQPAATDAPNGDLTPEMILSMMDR
UniProt P01037: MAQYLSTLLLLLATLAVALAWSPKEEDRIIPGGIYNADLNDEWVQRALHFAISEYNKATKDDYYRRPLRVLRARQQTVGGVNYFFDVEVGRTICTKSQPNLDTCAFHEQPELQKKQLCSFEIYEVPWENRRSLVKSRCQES
UniProt Q8IWT3: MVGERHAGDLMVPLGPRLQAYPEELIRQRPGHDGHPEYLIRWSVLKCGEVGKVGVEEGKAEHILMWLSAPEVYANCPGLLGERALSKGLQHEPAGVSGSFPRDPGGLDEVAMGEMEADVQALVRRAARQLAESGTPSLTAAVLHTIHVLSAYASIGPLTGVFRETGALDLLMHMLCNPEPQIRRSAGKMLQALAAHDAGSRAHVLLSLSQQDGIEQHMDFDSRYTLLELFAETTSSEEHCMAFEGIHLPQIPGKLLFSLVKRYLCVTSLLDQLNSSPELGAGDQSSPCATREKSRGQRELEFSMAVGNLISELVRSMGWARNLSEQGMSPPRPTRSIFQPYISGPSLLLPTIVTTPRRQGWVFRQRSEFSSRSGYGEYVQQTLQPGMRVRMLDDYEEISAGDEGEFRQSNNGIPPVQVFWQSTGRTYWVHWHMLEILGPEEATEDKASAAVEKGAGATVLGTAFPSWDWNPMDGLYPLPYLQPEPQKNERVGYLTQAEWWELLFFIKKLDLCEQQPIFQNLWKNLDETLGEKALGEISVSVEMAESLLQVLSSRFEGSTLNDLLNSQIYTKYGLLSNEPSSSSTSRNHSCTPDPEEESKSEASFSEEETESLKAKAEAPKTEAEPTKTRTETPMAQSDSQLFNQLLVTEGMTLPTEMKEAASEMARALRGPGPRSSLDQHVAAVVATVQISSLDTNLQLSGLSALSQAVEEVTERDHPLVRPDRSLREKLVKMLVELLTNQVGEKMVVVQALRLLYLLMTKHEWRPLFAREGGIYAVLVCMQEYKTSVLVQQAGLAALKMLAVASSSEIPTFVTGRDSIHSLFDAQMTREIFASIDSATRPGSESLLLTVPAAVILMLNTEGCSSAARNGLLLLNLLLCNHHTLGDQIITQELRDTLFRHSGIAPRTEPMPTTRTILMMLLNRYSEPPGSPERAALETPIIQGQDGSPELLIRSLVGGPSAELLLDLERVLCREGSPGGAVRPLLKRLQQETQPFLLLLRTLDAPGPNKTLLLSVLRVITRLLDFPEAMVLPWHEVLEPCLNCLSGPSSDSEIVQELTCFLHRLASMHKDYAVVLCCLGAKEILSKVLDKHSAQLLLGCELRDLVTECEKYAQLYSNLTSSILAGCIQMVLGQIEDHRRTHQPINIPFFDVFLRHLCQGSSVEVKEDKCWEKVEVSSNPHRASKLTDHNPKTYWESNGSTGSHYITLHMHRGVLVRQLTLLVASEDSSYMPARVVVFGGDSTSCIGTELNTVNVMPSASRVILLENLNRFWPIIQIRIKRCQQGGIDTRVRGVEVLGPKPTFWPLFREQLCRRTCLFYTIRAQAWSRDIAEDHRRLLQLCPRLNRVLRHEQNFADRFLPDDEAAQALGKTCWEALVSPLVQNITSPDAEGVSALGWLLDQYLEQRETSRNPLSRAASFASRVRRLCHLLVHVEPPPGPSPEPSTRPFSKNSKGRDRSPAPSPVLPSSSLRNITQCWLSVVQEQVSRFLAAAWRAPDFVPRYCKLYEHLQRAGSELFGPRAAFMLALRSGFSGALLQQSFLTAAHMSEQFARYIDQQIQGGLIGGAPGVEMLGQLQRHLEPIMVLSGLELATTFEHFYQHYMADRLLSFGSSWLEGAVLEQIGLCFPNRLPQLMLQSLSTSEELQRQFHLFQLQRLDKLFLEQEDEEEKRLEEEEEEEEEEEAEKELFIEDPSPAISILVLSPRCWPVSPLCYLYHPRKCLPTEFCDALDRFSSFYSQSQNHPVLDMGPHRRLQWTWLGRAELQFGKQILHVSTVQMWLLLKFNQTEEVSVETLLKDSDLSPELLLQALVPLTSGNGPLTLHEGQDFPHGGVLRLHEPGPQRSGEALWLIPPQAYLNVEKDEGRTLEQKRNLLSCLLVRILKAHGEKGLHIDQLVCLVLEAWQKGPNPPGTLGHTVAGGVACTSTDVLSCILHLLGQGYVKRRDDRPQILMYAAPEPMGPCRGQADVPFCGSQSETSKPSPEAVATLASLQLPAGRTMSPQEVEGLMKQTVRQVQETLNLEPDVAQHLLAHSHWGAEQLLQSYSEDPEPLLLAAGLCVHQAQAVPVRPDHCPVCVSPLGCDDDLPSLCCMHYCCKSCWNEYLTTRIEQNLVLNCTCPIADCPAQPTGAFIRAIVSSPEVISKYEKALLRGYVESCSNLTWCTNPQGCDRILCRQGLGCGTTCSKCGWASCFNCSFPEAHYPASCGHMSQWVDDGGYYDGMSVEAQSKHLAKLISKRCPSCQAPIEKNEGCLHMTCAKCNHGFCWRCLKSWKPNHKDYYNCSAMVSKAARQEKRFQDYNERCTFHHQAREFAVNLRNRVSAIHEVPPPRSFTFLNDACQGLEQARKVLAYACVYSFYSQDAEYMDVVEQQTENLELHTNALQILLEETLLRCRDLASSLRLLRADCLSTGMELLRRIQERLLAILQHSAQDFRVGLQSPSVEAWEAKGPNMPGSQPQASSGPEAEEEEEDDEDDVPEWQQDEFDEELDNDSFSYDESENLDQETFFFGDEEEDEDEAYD
UniProt Q53TN4: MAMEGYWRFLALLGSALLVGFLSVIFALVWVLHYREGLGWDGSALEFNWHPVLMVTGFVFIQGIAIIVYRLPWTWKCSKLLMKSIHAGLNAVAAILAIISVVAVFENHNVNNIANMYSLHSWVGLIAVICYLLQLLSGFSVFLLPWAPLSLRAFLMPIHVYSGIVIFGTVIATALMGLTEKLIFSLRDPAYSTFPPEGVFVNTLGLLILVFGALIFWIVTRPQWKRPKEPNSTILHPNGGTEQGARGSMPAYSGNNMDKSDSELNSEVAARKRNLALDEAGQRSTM
UniProt Q13948: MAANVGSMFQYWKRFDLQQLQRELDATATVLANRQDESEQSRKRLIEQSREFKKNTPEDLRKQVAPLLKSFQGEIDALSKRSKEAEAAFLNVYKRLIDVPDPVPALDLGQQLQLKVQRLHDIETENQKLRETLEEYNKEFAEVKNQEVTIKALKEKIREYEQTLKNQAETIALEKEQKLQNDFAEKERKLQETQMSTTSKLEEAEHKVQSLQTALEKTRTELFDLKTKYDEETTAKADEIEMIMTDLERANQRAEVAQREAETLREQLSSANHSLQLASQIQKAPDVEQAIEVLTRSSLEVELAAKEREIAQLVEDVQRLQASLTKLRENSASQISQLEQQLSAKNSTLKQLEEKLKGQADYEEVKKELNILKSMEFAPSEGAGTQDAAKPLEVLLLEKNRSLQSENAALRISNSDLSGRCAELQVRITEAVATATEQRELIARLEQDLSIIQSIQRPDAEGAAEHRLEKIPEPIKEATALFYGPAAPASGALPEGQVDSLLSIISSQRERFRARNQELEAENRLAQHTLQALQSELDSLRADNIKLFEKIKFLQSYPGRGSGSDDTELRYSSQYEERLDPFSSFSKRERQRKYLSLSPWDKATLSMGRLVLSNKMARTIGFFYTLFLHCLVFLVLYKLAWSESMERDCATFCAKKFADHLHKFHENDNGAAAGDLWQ
UniProt Q9Y2S2: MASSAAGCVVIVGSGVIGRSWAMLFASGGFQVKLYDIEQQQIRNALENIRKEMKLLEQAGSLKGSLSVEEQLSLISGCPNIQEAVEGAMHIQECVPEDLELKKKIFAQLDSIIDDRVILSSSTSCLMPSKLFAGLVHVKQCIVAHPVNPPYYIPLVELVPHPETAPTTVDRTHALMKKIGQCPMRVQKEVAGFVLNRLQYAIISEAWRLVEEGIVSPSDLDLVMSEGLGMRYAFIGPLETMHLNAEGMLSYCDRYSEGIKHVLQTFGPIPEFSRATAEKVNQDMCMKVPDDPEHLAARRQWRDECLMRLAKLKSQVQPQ
UniProt Q9Y600: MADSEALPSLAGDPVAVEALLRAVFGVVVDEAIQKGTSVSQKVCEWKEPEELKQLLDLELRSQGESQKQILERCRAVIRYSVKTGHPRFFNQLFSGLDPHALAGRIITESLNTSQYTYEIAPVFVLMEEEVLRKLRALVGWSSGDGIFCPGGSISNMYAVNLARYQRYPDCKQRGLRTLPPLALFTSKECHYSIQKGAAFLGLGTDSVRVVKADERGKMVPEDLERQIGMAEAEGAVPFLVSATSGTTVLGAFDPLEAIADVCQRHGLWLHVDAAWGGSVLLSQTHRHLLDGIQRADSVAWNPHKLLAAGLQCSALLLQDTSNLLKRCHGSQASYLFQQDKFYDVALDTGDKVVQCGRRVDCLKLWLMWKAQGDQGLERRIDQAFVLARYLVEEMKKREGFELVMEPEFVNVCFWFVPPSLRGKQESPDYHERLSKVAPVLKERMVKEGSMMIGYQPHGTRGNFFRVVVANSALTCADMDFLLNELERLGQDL
UniProt Q9HCP0: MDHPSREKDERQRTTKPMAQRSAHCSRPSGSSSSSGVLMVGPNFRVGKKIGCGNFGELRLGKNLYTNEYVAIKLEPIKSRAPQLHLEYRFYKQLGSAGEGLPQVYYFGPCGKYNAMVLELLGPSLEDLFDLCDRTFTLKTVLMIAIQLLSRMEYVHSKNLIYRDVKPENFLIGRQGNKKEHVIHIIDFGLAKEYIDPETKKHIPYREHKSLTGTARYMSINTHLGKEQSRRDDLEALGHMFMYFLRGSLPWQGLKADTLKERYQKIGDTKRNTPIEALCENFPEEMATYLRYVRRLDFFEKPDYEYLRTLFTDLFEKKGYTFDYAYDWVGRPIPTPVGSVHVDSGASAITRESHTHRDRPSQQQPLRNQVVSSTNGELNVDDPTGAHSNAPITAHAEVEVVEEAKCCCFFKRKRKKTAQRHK
UniProt O75718: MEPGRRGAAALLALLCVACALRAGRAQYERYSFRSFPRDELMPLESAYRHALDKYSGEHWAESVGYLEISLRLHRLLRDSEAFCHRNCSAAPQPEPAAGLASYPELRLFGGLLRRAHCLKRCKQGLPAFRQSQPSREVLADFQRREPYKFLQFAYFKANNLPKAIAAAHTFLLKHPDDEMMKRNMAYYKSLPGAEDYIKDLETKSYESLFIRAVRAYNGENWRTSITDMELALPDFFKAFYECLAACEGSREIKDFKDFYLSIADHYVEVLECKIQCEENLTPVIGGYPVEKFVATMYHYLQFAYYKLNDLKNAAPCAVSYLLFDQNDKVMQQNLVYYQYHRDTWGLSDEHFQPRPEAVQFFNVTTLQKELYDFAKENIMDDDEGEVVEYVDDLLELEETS
UniProt Q9UJA2: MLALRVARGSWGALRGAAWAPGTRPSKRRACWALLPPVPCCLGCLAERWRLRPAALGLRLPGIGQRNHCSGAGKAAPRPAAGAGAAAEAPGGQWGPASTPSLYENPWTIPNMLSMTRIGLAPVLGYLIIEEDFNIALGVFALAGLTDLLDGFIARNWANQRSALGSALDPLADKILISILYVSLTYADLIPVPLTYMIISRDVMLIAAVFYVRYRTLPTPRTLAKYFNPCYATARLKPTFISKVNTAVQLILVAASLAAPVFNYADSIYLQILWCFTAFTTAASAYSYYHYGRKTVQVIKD

Tests used:
Test in all cases: log2 fold change, soluble protein after heating vs DMSO (PISA); higher = thermal stabilisation; K562 lysate, 10 uM; active = over 0.2 and 3.5 SD of the protein, either way, in both replicates (recomputed)
erlotinib = compound: C#Cc1cccc(Nc2ncnc3cc(OCCOC)c(OCCOC)cc23)c1 [erlotinib]
In short: (§1)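 Values give the log-two fold change in thermal stability against solvent controls, from duplicates. Crude K562 extract at 1 mg/mL protein, made by dounce homogenisation in PBS pH 7.4 with 1 mM MgCl2, was treated with 10 μM compound for 30 min. After 3 min heating across 48°C-58°C, aliquots were pooled, adjusted to 0.5% NP-40 at 4°C and centrifuged at 21,000xg for 90 min. The supernatant was measured by TMTpro 16plex LC-MS/MS with channel sums equalised.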

[1] = compound: C/C(=N\NC(=O)C1=CC(=CC=C1)S(=O)(=O)N2CCOCC2)/C3=C(C=CC(=C3)Cl)O
In short: as §1

[2] = compound: C1=CC(=CC=C1C2=NC3=C(N2)C=C(C=C3)C(=O)N)OC4=CC=C(C=C4)Cl
In short: as §1

[3] = compound: C1=CC2=C(C=CC(=C2)/C=C\3/C(=O)NC(=NCC4=CC=CS4)S3)N=C1
In short: as §1

[4] = compound: C1=CC2=NC=CN=C2C=C1/C=C/3\C(=O)NC(=O)S3
In short: as §1

[5] = compound: C1=CC=C(C=C1)C2=NC(=C(N2)C3=CC=NC=C3)C4=CC(=C(C=C4)Cl)O
In short: as §1

[6] = compound: C1=CC=C2C(=C1)C3=NNC4=CC=CC(=C43)C2=O
In short: as §1

[7] = compound: C1CCN(C1)C(=O)NC2=CC=CC(=C2)NC3=NC=C(C(=N3)NCCC4=CN=CN4)Br
In short: as §1

[8] = compound: C1CN(CCC1(CC2=CC=C(C=C2)Cl)N)C3=NC=NC4=C3C=CN4
In short: as §1

IRAK-1-4 Inhibitor I = compound: C1COCCN1CCN2C3=CC=CC=C3N=C2NC(=O)C4=CC(=CC=C4)[N+](=O)[O-] [IRAK-1-4 Inhibitor I]
In short: as §1

ibrutinib = compound: C=CC(=O)N1CCC[C@@H](n2nc(-c3ccc(Oc4ccccc4)cc3)c3c(N)ncnc32)C1 [ibrutinib]
In short: as §1

[9] = compound: CC(=O)c1cnc2ccc(-c3cc(Cl)c(O)c(Cl)c3)nc2c1N[C@H]1CC[C@H](CN(C)C)CC1
In short: as §1

ralimetinib = compound: CC(C)(C)Cn1c(N)nc2ccc(-c3[nH]c(C(C)(C)C)nc3-c3ccc(F)cc3)nc21 [ralimetinib]
In short: as §1

[10] = compound: CC(C)(O)CC(=O)NCCn1ccc2ncnc(Nc3ccc(Oc4cccc(C(F)(F)F)c4)c(Cl)c3)c21
In short: as §1

[11] = compound: CC(C)C1=C2N=C(C=C(N2N=C1)NCC3=CC=CC=C3)NCCCCCCN
In short: as §1

[12] = compound: CC1=C(C(CC(=O)N1)C2=CC=C(C=C2)C(F)(F)F)C(=O)NC3=C(C=C4C(=C3)C=NN4)F
In short: as §1

[13] = compound: CC1=C(C2=C(C=C1)C(=O)C3=CC=CC=C3N2CCCN)C
In short: as §1

[14] = compound: CC1=C(C=C(C=C1)NC(=O)C2=CC(=CC=C2)C(C)(C)C#N)NC3=CC4=C(C=C3)N=CN(C4=O)C
In short: as §1

[15] = compound: CC1=C(C=C(C=C1)NC(=O)C2=CC(=CC=C2)N(C)C)NC(=O)C3=CC=C(C=C3)O
In short: as §1

[16] = compound: CC1=CC=C(C=C1)SC2=C3C=C(SC3=CN=C2)C(=O)N
In short: as §1

Measured: log2 fold change

CRK (UniProt P46108)
inactive: erlotinib 0.01 | [1] -0.016 | [2] 0.024 | [3] 0.003 | [4] 0.001 | [5] 0.007 | [6] -0.002 | [7] 0.001 | [8] 0.012 | IRAK-1-4 Inhibitor I -0.009 | ibrutinib -0.009 | [9] -0.012 | ralimetinib 0.01 | [10] -0.041 | [11] 0.018 | [12] -0.008 | [13] -0.011 | [14] 0.035 | [15] 0.015 | [16] -0.021

CTCF (UniProt P49711)
inactive: erlotinib -0.002 | [1] -0.066 | [2] -0.016 | [3] -0.096 | [4] -0.022 | [5] -0.001 | [6] -0.016 | [7] 0.046 | [8] 0.011 | IRAK-1-4 Inhibitor I 0.01 | ibrutinib -0.025 | [9] -0.024 | ralimetinib -0.004 | [10] -0.054 | [11] -0.008 | [12] -0.013 | [13] -0.026 | [14] 0.013 | [15] 0.017 | [16] 0.006

CTSF (UniProt Q9UBX1)
inactive: erlotinib -0.006 | [2] 0.158 | [5] 0.076 | IRAK-1-4 Inhibitor I -0.069 | ralimetinib 0.386 | [10] 0.008 | [11] 0.076 | [15] 0.012

CSRNP2 (UniProt Q9H175)
inactive: erlotinib -0.049 | [2] -0.097 | [5] 0.024 | IRAK-1-4 Inhibitor I -0.095 | ralimetinib -0.066 | [10] 0.15 | [11] 0.127 | [13] 0.203 | [15] -0.037

Looked up one by one from the entries so far, two records:
CTCF (UniProt P49711)
inactive: erlotinib -0.002 | [1] -0.066 | [2] -0.016 | [3] -0.096 | [4] -0.022 | [5] -0.001 | [6] -0.016 | [7] 0.046 | [8] 0.011 | IRAK-1-4 Inhibitor I 0.01 | ibrutinib -0.025 | [9] -0.024 | ralimetinib -0.004 | [10] -0.054 | [11] -0.008 | [12] -0.013 | [13] -0.026 | [14] 0.013 | [15] 0.017 | [16] 0.006

CRK (UniProt P46108)
inactive: erlotinib 0.01 | [1] -0.016 | [2] 0.024 | [3] 0.003 | [4] 0.001 | [5] 0.007 | [6] -0.002 | [7] 0.001 | [8] 0.012 | IRAK-1-4 Inhibitor I -0.009 | ibrutinib -0.009 | [9] -0.012 | ralimetinib 0.01 | [10] -0.041 | [11] 0.018 | [12] -0.008 | [13] -0.011 | [14] 0.035 | [15] 0.015 | [16] -0.021

Next part:

CST1 (UniProt P01037)
inactive: erlotinib 0.185 | [2] -0.156 | [5] -0.107 | [7] 0.026 | [8] -0.07 | IRAK-1-4 Inhibitor I -0.189 | ralimetinib -0.124 | [10] 0.725 | [11] 0.589 | [12] 1.24 | [14] -0.066 | [15] 0.051

CYB561 (UniProt P49447)
inactive: erlotinib 0.136 | [1] -0.126 | [2] -0.076 | [3] 0.034 | [4] 0.019 | [5] 0.176 | [6] 0 | [7] -0.014 | [8] 0.211 | IRAK-1-4 Inhibitor I 0.136 | ibrutinib 0.161 | [9] -0.099 | ralimetinib -0.15 | [10] 0.031 | [11] 0.137 | [13] -0.037 | [14] 0.19 | [15] -0.017 | [16] -0.035

CYB5A (UniProt P00167)
inactive: erlotinib 0.015 | [2] -0.027 | [4] -0.039 | [5] -0.007 | [7] -0.01 | [8] 0.049 | IRAK-1-4 Inhibitor I -0.017 | ibrutinib 0.08 | ralimetinib -0.026 | [10] -0.057 | [11] 0.025 | [12] 0.06 | [13] -0.086 | [14] 0.001 | [15] 0.05

CRISP3 isoform 3 (UniProt P54108)
inactive: erlotinib -0.578 | [2] -0.113 | [5] -0.006 | IRAK-1-4 Inhibitor I -0.238 | ralimetinib -0.047 | [10] 0 | [11] 0.151 | [12] 1.34 | [13] -0.378 | [15] 0.24

CUL9 (UniProt Q8IWT3)
inactive: erlotinib -0.099 | [2] 0.028 | [4] 0.089 | ibrutinib -0.064 | [9] 0.048 | [11] 0.07 | [12] -0.028 | [14] 0.221 | [16] 0.067

CS (UniProt F8VU34)
inactive: erlotinib 0.047 | [2] 0.212 | [4] -0.151 | [5] -0.084 | IRAK-1-4 Inhibitor I 0.345 | ibrutinib 0.03 | [9] -0.245 | ralimetinib -0.158 | [10] -0.018 | [11] -0.071 | [13] -0.275 | [15] 0.044 | [16] -0.008

CYBRD1 (UniProt Q53TN4)
inactive: erlotinib -0.08 | [1] 0.115 | [2] 0.008 | [3] -0.05 | [4] 0.004 | [6] -0.015 | ibrutinib 0.059 | [9] -0.02 | [11] -0.018 | [13] -0.06 | [14] 0.01 | [16] -0.006

CRELD1 isoform 2 (UniProt Q96HD1)
inactive: erlotinib -0.031 | [1] -0.166 | [2] 0.05 | [3] -0.094 | [4] 0.049 | [5] 0.008 | [6] 0.096 | [7] -0.06 | [8] -0.064 | IRAK-1-4 Inhibitor I 0.087 | ibrutinib 0.062 | [9] -0.033 | ralimetinib -0.006 | [10] -0.061 | [11] -0.064 | [12] -0.03 | [13] -0.039 | [15] -0.035 | [16] 0.017

CUX1 isoform 2 (UniProt Q13948)
inactive: erlotinib -0.029 | [1] -0.003 | [2] -0.229 | [3] 0.034 | [5] -0.011 | [6] 0.02 | [7] -0.015 | [8] -0.008 | IRAK-1-4 Inhibitor I 0.029 | [9] 0.07 | ralimetinib -0.069 | [10] 0.052 | [11] -0.16 | [13] -0.027 | [14] 0.385 | [15] 0.043 | [16] -0.086

CTNNAL1 (UniProt Q9UBT7)
inactive: erlotinib -0.03 | [1] 0.053 | [2] -0.063 | [3] -0.009 | [6] -0.119 | [7] 0.039 | [8] 0.012 | [9] -0.023 | [11] 0.001 | [12] 0.024 | [13] -0.266 | [14] 0.06 | [16] -0.046

CRYL1 (UniProt Q9Y2S2)
inactive: erlotinib -0.082 | [1] -0.042 | [2] 0.136 | [3] 0.038 | [6] -0.024 | [9] 0.085 | [11] -0.209 | [13] -0.127 | [14] -0.13 | [16] 0.145

CSAD isoform 3 (UniProt Q9Y600)
inactive: erlotinib -0.02 | [2] 0.064 | [4] -0.115 | [5] 0.044 | IRAK-1-4 Inhibitor I -0.02 | ibrutinib -0.224 | ralimetinib -0.019 | [10] -0.048 | [11] 0.041 | [14] -0.027 | [15] -0.033

CTC1 (UniProt Q2NKJ3)
inactive: erlotinib 0.047 | [1] -0.023 | [2] -0.084 | [3] -0.069 | [4] 0.014 | [5] -0.012 | [6] -0.066 | [7] 0.053 | [8] 0.033 | IRAK-1-4 Inhibitor I 0.053 | ibrutinib -0.069 | ralimetinib -0.047 | [10] 0.005 | [11] 0.106 | [12] 0.053 | [13] -0.084 | [14] -0.016 | [15] 0.045

CSNK1G1 (UniProt Q9HCP0)
inactive: erlotinib -0.246 | [2] 0.177 | [4] 0.107 | [7] 0.093 | [8] -0.152 | ibrutinib -0.019 | [9] 0.527 | [11] 0.005 | [13] -0.091 | [16] 0.39

CSPG5 isoform 2 (UniProt O95196)
inactive: erlotinib -0.448 | [1] 0.207 | [2] -0.109 | [3] -0.431 | [4] 0.108 | [5] -0.085 | [6] -0.066 | IRAK-1-4 Inhibitor I 0.014 | ibrutinib 0.001 | ralimetinib -0.109 | [10] 0.087 | [11] 0.015 | [12] -0.451 | [14] 0.012 | [15] 0.031

CYBC1 (UniProt Q9BQA9)
inactive: erlotinib 0.002 | [2] -0.011 | [4] 0.019 | [5] -0.008 | [7] 0.095 | [8] 0.03 | IRAK-1-4 Inhibitor I 0.088 | ibrutinib -0.024 | [9] 0.005 | ralimetinib 0.093 | [10] -0.201 | [11] -0.002 | [12] -0.015 | [13] 0.045 | [14] 0.108 | [15] -0.069 | [16] 0.019

CRTAP (UniProt O75718)
inactive: erlotinib -0.032 | [1] 0.046 | [2] -0.012 | [3] -0.011 | [4] 0 | [5] 0.005 | [6] -0.004 | [7] 0.057 | [8] -0.014 | IRAK-1-4 Inhibitor I -0.043 | ibrutinib 0.025 | [9] 0.001 | ralimetinib 0.062 | [10] 0.032 | [11] -0.022 | [12] 0.052 | [13] 0.019 | [14] -0.119 | [15] -0.001 | [16] 0.026

CRLS1 (UniProt Q9UJA2)
inactive: erlotinib 0.074 | [2] -0.085 | [4] 0.087 | [5] 0.056 | IRAK-1-4 Inhibitor I -0.021 | ibrutinib -0.023 | [9] -0.008 | ralimetinib 0.079 | [10] -0.027 | [11] -0.102 | [12] -0.049 | [14] 0.066 | [15] 0.058 | [16] 0.048
